Data as given in PubChem BioAssay AID493246 (Drosophila RNAi Screening Center, 2011)
In all, the deposit lists about 21,000 reagents; below is an unselected part of those that have a named target and a result. Over the whole deposit, 429 (2%) are marked active. 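Values are raw and not normalised between plates; calls rest on per-plate z-scores that were not deposited.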 A plus sign joins genes that one reagent is predicted to hit. No sequences are given here. Not given: the amount of reagent, the time to read-out.

Test: 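Genome-wide search for dsRNAs that reduce cell number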 (primary screen)
Cells: Drosophila Kc and S2R+ cells
Reagent: long dsRNA against Drosophila genes
Detection: 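Cell number per well after knock-down, printed as raw plate values; calls were based on per-plate z-scores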
Reading the numbers: Kc cell number and S2R+ cell number: higher = more cells remaining
Call rule: 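Active when the per-plate z-score of cell number is 3 or more in the direction of fewer cells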

The first 5 entries as a preview:
gene	DRSC id	Kc cell number, rep 1	Kc cell number, rep 2	S2R+ cell number, rep 1	S2R+ cell number, rep 2	call
CG7079 (GeneID 42488)	DRSC16192	1.26e6	1.29e6	1.05e6	1.20e6	inactive
ort (GeneID 45910)	DRSC16240	1.41e6	1.38e6	1.08e6	1.17e6	inactive
CG34149 (GeneID 4379861)	DRSC14537	1.44e6	1.55e6	1.12e6	1.14e6	inactive
RhoGAP93B (GeneID 42496)	DRSC15488	1.29e6	1.25e6	1.19e6	1.24e6	inactive
Ankrd49 (GeneID 34874)	DRSC01894	1.53e6	1.59e6	1.29e6	1.36e6	inactive

Results, repeating the preview:
gene	DRSC id	Kc cell number, rep 1	Kc cell number, rep 2	S2R+ cell number, rep 1	S2R+ cell number, rep 2	call
CG7079 (GeneID 42488)	DRSC16192	1.26e6	1.29e6	1.05e6	1.20e6	inactive
ort (GeneID 45910)	DRSC16240	1.41e6	1.38e6	1.08e6	1.17e6	inactive
CG34149 (GeneID 4379861)	DRSC14537	1.44e6	1.55e6	1.12e6	1.14e6	inactive
RhoGAP93B (GeneID 42496)	DRSC15488	1.29e6	1.25e6	1.19e6	1.24e6	inactive
Ankrd49 (GeneID 34874)	DRSC01894	1.53e6	1.59e6	1.29e6	1.36e6	inactive
CG12506 (GeneID 33249)	DRSC00347	1.55e6	1.60e6	1.11e6	1.20e6	inactive
CG31380 (GeneID 318701)	DRSC15688	1.50e6	1.47e6	9.93e5	1.07e6	inactive
Ppm1 (GeneID 38071)	DRSC08260	1.17e6	1.22e6	1.07e6	1.27e6	inactive
Mrp4 (GeneID 41387)	DRSC14931	1.56e6	1.60e6	1.23e6	1.26e6	inactive
CG9372 (GeneID 40137)	DRSC11068	1.35e6	1.34e6	1.16e6	1.30e6	inactive
CG1909 (GeneID 43800)	DRSC17150	4.74e5		8.93e5		inactive
CG13059 (GeneID 39803)	DRSC09942	1.46e6	1.58e6	1.33e6	1.51e6	inactive
dwg (GeneID 31265)	DRSC18766	5.59e5		8.69e5		inactive
CG7289 (GeneID 33372)	DRSC00697	1.41e6	1.39e6	1.04e6	1.25e6	inactive
CG43347 (GeneID 31991)	DRSC17982	1.58e6	1.47e6	9.62e5	1.03e6	inactive
CG43347 (GeneID 31991)	DRSC18446	9.13e5	9.54e5	4.82e5	5.94e5	active
fd3F (retired record) (GeneID 246673)	DRSC17843	1.26e6	1.40e6	5.87e5	6.63e5	active
CG6508 (GeneID 34493)	DRSC02963	1.51e6	1.58e6	1.25e6	1.34e6	inactive
mRpL11 (GeneID 41757)	DRSC15482	1.26e6	1.26e6	9.31e5	1.08e6	inactive
CG8508 (GeneID 41620)	DRSC16436	1.62e6	1.69e6	1.38e6	1.48e6	inactive
ash1 (GeneID 40133)	DRSC11325	1.49e6	1.59e6	1.03e6	1.08e6	inactive
mus81 (GeneID 31044)	DRSC18180	1.47e6	1.44e6	9.90e5	1.07e6	inactive
mus81 (GeneID 31044)	DRSC18644	1.48e6	1.48e6	1.02e6	1.12e6	inactive
twi (GeneID 37655)	DRSC04720	1.60e6	1.64e6	1.18e6	1.59e6	inactive
Pnn (GeneID 41185)	DRSC16415	1.45e6	1.55e6	1.21e6	1.32e6	inactive
Ssadh (GeneID 43092)	DRSC15621	5.16e5		7.61e5		inactive
side-III (GeneID 4379844)	DRSC12155	1.39e6	1.52e6	1.23e6	1.31e6	inactive
side-III (GeneID 4379844)	DRSC12263	1.50e6	1.55e6	1.05e6	1.15e6	inactive
side-III (GeneID 4379844)	DRSC12264	1.37e6	1.38e6	1.30e6	1.43e6	inactive
CG13813 (GeneID 40218)	DRSC10068	1.66e6	1.72e6	1.31e6	1.45e6	inactive
CG3347 (GeneID 33538)	DRSC00597	1.74e6	1.75e6	1.10e6	1.29e6	inactive
sona (GeneID 37762)	DRSC04089	1.50e6	1.58e6	1.32e6	1.42e6	inactive
sona (GeneID 37762)	DRSC04574	1.48e6	1.55e6	1.15e6	1.24e6	inactive
sona (GeneID 37762)	DRSC04575	1.46e6	1.52e6	1.28e6	1.39e6	inactive
CG13408 (GeneID 42597)	DRSC13534	1.39e6	1.41e6	1.00e6	1.07e6	inactive
CG13408 (GeneID 42597)	DRSC14584	1.41e6	1.37e6	1.17e6	1.26e6	inactive
CG31953 (retired record) + gkt	DRSC00709	1.32e6	1.33e6	9.58e5	1.09e6	inactive
CG11192 (GeneID 37309)	DRSC06057	1.67e6	1.70e6	1.16e6	1.39e6	inactive
Gsc (GeneID 33240)	DRSC00755	1.48e6	1.56e6	9.69e5	1.13e6	inactive
Or92a (GeneID 42425)	DRSC16771	1.39e6	1.37e6	1.14e6	1.23e6	inactive
CG42380 + CG42379 + PIG-M + 1 more	DRSC03884	6.68e5		9.60e5		inactive
CG42380 + CG42379 + PIG-M + 1 more	DRSC04580	1.26e6	1.35e6	9.30e5	9.00e5	inactive
CG43367 (GeneID 38505)	DRSC08299	1.51e6	1.33e6	1.19e6	1.37e6	inactive
CG43367 (GeneID 38505)	DRSC08301	1.46e6	1.35e6	1.08e6	1.22e6	inactive
CG43367 (GeneID 38505)	DRSC08309	1.44e6	1.18e6	1.14e6	1.20e6	inactive
kek3 (GeneID 34912)	DRSC03553	1.24e6	1.28e6	1.05e6	1.13e6	inactive
CG15143 (GeneID 35062)	DRSC02444	1.50e6	1.58e6	1.21e6	1.38e6	inactive
CG42724 (GeneID 40785)	DRSC12567	1.65e6	1.71e6	1.15e6	1.25e6	inactive
veil (GeneID 36968)	DRSC06892	1.40e6	1.46e6	1.12e6	1.14e6	inactive
Gr23a (GeneID 33453)	DRSC00410	1.69e6	1.69e6	1.14e6	1.27e6	inactive
mRpL39 (GeneID 39627)	DRSC10255	1.17e6	1.31e6	1.09e6	1.26e6	inactive
CG15145 (GeneID 35064)	DRSC02446	1.46e6	1.50e6	1.25e6	1.43e6	inactive
XNP (GeneID 43080)	DRSC15594	5.00e5		8.16e5		inactive
Rbpn-5 (GeneID 37395)	DRSC04440	1.26e6	1.39e6	1.12e6	1.17e6	inactive
Idgf4 (GeneID 31926)	DRSC18675	1.50e6	1.42e6	1.07e6	1.18e6	inactive
CG7251 (GeneID 33791)	DRSC03039	1.35e6	1.42e6	5.98e5	9.44e5	inactive
CG14667 (GeneID 40643)	DRSC12253	1.51e6	1.70e6	1.32e6	1.42e6	inactive
Acat1 (GeneID 31695)	DRSC17766	6.33e5		9.39e5		inactive
ifc (GeneID 33836)	DRSC03549	1.21e6	1.27e6	7.14e5	9.52e5	inactive
Sap130 (GeneID 39455)	DRSC09680	1.51e6	1.50e6	1.08e6	1.20e6	inactive
Cyp6a16Psi (retired record) (GeneID 3772661)	DRSC03307	1.45e6	1.43e6	1.20e6	1.31e6	inactive
Cyp6t3 (GeneID 36318)	DRSC07388	1.63e6	1.72e6	1.27e6	1.39e6	inactive
UQCR-C2 (GeneID 39846)	DRSC10405	1.29e6	1.28e6	9.99e5	1.14e6	inactive
yellow-f (GeneID 41595)	DRSC15348	1.34e6	1.18e6	1.02e6	1.10e6	inactive
Pka-C1 (GeneID 34284)	DRSC03399	1.34e6	1.38e6	1.17e6	1.22e6	inactive
CG7950 + Rpp14a	DRSC16353	4.74e5		7.10e5		inactive
CG13077 (GeneID 35252)	DRSC02181	1.62e6	1.68e6	1.36e6	5.47e5	inactive
CG5773 (GeneID 37053)	DRSC06955	1.47e6	1.51e6	1.09e6	1.21e6	inactive
PCB (GeneID 36020)	DRSC05939	1.24e6	1.32e6	1.07e6	1.16e6	inactive
Nufip (GeneID 40043)	DRSC10397	1.78e6	1.86e6	1.24e6	1.29e6	inactive
CG42544 (GeneID 8674002)	DRSC12451	1.37e6	1.48e6	1.06e6	1.19e6	inactive
CG31010 (GeneID 318555)	DRSC14006	1.31e6	1.46e6	1.05e6	1.12e6	inactive
Plap (GeneID 43978)	DRSC00678	1.26e6	1.28e6	9.28e5	9.84e5	inactive
Obp46a (GeneID 36088)	DRSC06220	1.44e6	1.49e6	1.22e6	1.33e6	inactive
GluRIID (GeneID 44483)	DRSC16723	1.30e6	1.35e6	1.17e6	1.28e6	inactive
